The values that follow come from paper doi:10.1101/032243.

Experiment in all cases: co-IP
Experiment [1] deals with T1, DISC1 (as used in the co-IP of Fig. S3D) (UniProt Q811T9).
T1 sequence: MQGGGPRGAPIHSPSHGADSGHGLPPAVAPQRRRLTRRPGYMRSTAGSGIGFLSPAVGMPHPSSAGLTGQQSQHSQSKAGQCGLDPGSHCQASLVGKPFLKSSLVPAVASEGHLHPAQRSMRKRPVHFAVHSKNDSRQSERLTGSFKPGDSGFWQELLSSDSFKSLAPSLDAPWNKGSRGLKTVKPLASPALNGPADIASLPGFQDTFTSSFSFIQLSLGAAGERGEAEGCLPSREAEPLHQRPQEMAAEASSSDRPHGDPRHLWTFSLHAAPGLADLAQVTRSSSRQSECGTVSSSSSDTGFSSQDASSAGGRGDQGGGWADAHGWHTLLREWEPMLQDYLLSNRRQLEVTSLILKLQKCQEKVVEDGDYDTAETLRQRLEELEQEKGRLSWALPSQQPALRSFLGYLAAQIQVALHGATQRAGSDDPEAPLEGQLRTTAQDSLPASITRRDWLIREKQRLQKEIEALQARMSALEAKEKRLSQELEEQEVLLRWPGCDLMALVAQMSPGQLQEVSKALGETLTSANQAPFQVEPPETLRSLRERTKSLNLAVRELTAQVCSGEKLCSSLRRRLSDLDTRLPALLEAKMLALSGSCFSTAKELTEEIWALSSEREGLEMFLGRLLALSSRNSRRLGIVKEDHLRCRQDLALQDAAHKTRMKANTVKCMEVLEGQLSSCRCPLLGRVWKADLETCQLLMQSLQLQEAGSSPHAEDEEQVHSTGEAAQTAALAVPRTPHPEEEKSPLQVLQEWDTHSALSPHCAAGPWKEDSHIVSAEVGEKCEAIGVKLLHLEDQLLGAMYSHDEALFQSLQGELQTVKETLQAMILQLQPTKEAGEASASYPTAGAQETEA

The target in experiment [2] is T2, full-length Flag-tagged DISC1 (mouse) (UniProt Q811T9).
T2 sequence: T1 sequence

The target of experiment [3] is Flag-tagged DISC1 CT region (residues 634-852) (mouse) (UniProt Q811T9).
The target in experiment [4] is T3, full-length Flag-tagged RASSF7 (UniProt Q9DD19).
T3 sequence: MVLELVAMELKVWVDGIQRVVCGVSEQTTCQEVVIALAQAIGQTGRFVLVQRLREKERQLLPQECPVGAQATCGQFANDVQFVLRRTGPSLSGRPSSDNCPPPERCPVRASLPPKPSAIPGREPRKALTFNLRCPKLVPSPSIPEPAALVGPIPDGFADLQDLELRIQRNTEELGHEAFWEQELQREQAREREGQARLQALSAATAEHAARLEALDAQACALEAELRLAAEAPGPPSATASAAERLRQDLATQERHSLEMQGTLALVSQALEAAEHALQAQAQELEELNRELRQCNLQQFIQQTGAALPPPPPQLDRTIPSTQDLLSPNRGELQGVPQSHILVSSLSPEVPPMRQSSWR

These are yes or no findings as the source states them, for the method shown. In cells and extracts the contact can be indirect. Some results given as binding are weak or reduced against the parent protein; the word gives no strength. For some of these results: Sequences can lack the tags named with a protein.

Turning to c-RAF (from UniProt Q99N57 1-648), the binding result in experiment [1] is reported as “no binding”.

B1: full-length HA-tagged RASSF7 (protein, UniProt Q9DD19 1-359)
chain: T3 sequence
For B1, the binding result in experiment [2] and in experiment [3] was “binds” throughout.

B2: full-length HA-tagged mDISC1 (protein, UniProt Q811T9 1-852)
chain: T1 sequence
Regarding B2, the binding result in experiment [4] is reported as “binds”.
